The source of these data is US20140227291A1.

Results are given in words; binding and its absence hold for the method and conditions named. Some results given as binding are weak or reduced against the parent protein; the word gives no strength.

The experiment addresses Abeta(20-42) globulomer (human). As to the kind of experiment: dot blot: antigen dilution series dotted on nitrocellulose, antibody 0.2 ug/ml, anti-mouse-IgG-POD detection.

B1: murine monoclonal antibody m4C9 (antibody, V domains shown)
VH: QVQLQQPGAELVKPGASVKLSCKAPGYTFTSYWMHWVKQRPGQGLEWIGRIDPKSGDTKYTEKFKSKATLTVDKPSSTAYMQLSSLTSEDSAVYYCTTMSKLSGTHAWFAYWGQGTLVTVSA
VL: DIKMTQSPSSMYASLGERVTITCKASQDINSYLTWFQQKPGKSPKTLIYRANRLVDGVPSRFSGSGSGQDYSLTISSLEYEDMGIYYCLQYDEFPLTFGAGTKLELK
As for B1, the binding result is recorded as “binds”.
